{
  "source": "paper PMC11130238",
  "about": "“Mechanism of complement inhibition by a mosquito protein revealed through cryo-EM” (Communications Biology, 2024)",
  "binders": {"B1": {"name": "albicin (natural protein)", "chain": "ANNHIRTVLKLFRTIDLDDSKKSFYLTAAKYGIQTQLREPIIRIVGGYLPSTKLSEACVKNMISEVYEIEGDFYSKFSYACEDHAPYSVECLEDARDDYLTQLVELFKETKKCLRE", "notes": "albicin, salivary Sg7-1 family protein of the mosquito Anopheles albimanus; crystal structure PDB 6XKE; Four-helix bundle with two disulfide bonds; Probably made without its signal peptide (surmised); also called Sg7-1 protein of An. albimanus"}},
  "molecular_target": "C3bB, the C3 proconvertase (human)",
  "assay": "SEC; C3b, FB and albicin mixed in buffer A with MgCl2 replaced by NiCl2 (no FD); Superdex 200 Increase in buffer A-Ni; SDS-PAGE of fractions; both purified",
  "note": "These are yes or no findings as the source states them, for the method shown.",
  "data": [
    {"binder": "B1", "values": [
      {"measurement": "binding", "value": "no binding"}
    ]}
  ]
}
